{"source": "PubChem BioAssay AID1259308 (NCATS, 2017)", "screen": "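Knock-downs that increase output of a recombinant reporter protein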 (primary screen)", "cell system": "human HEK293 embryonic kidney cells stably expressing firefly luciferase (HEK-CMV-Luc2-Hygro)", "reagent": "single siRNA against human genes, 0.8 pmol siRNA per well", "duration": "72 h", "detection": "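Reporter luminescence and viable-cell signal on separate replicate plates, given as percent of non-targeting control and median/MAD z-scores, plus per-cell luciferase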", "scale": "total luciferase, z-score: higher = more reporter protein produced", "call rule": "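An siRNA counts as active if its total luciferase robust z-score exceeds 3; genes with two or more such siRNAs out of three were retested with fresh siRNAs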", "meaning of the calls": "active = raised luciferase; inactive = no rise", "note": "In all, the deposit lists about 59,000 reagents; shown is an unselected part. In the full data, about 1,510 (2.6%) are marked active. 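Calls use total luciferase alone and ignore viability, so some active siRNAs may act by altering cell number.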 Further read-outs or replicates are left out here."}
{"Target gene": "BSPRY (B-box and SPRY domain containing)", "PubChem SID": "SID160742278", "total luciferase, z-score": 0.84, "call": "inactive"}
{"Target gene": "BSPRY (B-box and SPRY domain containing)", "PubChem SID": "SID160742280", "total luciferase, z-score": 2.66, "call": "inactive"}
{"Target gene": "BSPRY (B-box and SPRY domain containing)", "PubChem SID": "SID160742281", "total luciferase, z-score": -0.177, "call": "inactive"}
{"Target gene": "ATXN3L (ataxin 3 like)", "PubChem SID": "SID160754303", "total luciferase, z-score": 0.521, "call": "inactive"}
{"Target gene": "ATXN3L (ataxin 3 like)", "PubChem SID": "SID160754304", "total luciferase, z-score": -0.409, "call": "inactive"}
{"Target gene": "ATXN3L (ataxin 3 like)", "PubChem SID": "SID160754305", "total luciferase, z-score": -1.33, "call": "inactive"}

Part of the list above, set out differently:
ATXN3L (ataxin 3 like) [SID160754304]
- total luciferase, z-score: -0.409
- call: inactive

ATXN3L (ataxin 3 like) [SID160754305]
- total luciferase, z-score: -1.33
- call: inactive

The results go on.
{"Target gene": "OR2K2 (olfactory receptor family 2 subfamily K member 2)", "PubChem SID": "SID160737826", "total luciferase, z-score": -0.454, "call": "inactive"}
{"Target gene": "OR2K2 (olfactory receptor family 2 subfamily K member 2)", "PubChem SID": "SID160737828", "total luciferase, z-score": 0.71, "call": "inactive"}
{"Target gene": "OR2K2 (olfactory receptor family 2 subfamily K member 2)", "PubChem SID": "SID160737829", "total luciferase, z-score": 0.16, "call": "inactive"}
{"Target gene": "CMKLR2 (chemerin chemokine-like receptor 2)", "PubChem SID": "SID160772955", "total luciferase, z-score": -1.21, "call": "inactive"}
{"Target gene": "CMKLR2 (chemerin chemokine-like receptor 2)", "PubChem SID": "SID160772963", "total luciferase, z-score": -0.343, "call": "inactive"}
{"Target gene": "CMKLR2 (chemerin chemokine-like receptor 2)", "PubChem SID": "SID160772973", "total luciferase, z-score": -0.916, "call": "inactive"}
